According to patent publication US20170267768A1:
Residue numbers refer to the chain shown, from its start. Results are given in words; binding and its absence hold for the method and conditions named. Some results given as binding are weak or reduced against the parent protein; the word gives no strength. Values belong to the binder of their own block, whether it stands above or below them.

By UniProt entry, the sequences of proteins in these tests, tags left out. Residues count along the entry.
UniProt P29317, residues 25-534: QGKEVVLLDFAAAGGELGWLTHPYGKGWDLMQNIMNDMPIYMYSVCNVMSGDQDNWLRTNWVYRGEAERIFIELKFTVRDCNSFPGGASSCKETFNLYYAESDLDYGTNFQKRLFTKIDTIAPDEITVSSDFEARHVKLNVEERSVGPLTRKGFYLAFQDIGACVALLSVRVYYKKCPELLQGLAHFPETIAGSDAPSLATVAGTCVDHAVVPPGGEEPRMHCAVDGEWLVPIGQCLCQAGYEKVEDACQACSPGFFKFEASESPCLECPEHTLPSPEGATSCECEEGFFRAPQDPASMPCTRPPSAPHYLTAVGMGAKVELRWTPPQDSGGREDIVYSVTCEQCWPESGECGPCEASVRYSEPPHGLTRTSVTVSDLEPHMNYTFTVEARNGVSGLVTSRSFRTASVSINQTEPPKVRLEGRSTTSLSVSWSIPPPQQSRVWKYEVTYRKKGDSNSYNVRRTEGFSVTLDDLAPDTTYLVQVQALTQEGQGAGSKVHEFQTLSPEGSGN

Tests used:
EphA2 with an His6 tag = EphA2 with an His6 tag (UniProt P29317); experiment: yeast display FACS; 200 nM EphA2-His6, anti-His6 detection
[1] = target: Staphylococcus aureus Protein A (Staphylococcus aureus) (UniProt P38507); experiment: yeast display FACS; 10 ug/mL fluorescently labeled Protein A

binding (EphA2 with an His6 tag): binds
binding [1]: binds
B1: scFv-1 (scFv)
scFv: QVQLVQSGGGLVQPGGSLRLSCAASGFTFSSYAMHWVRQAPGKGLEWVSVISPAGNNTYYADSVKGRFTISRDNSKNTLYLQMNSLRAEDTAVYYCARASVGATGPFDIWGQGTLVTVSSASTGGGGSGGGGSGGGGSGGGGSSSELTQPPSVSVAPGQTVTITCQGDSLRSYYASWYQQKPGTAPKLLIYGENNRPSGVPDRFSGSSSGTSASLTITGAQAEDEADYYCNSRDSSGTHLTVFGGGTKLTVLG

binding (EphA2 with an His6 tag): binds
binding [1]: binds
B2: scFv-22 (scFv)
scFv: B1 scFv with S49T, A54G, N56P, T58K

binding (EphA2 with an His6 tag): binds
binding [1]: binds
B3: scFv-11 (scFv)
scFv: B1 scFv with S49A, P53H, A54H, N56S

binding (EphA2 with an His6 tag): binds
binding [1]: binds
B4: scFv-10 (scFv)
scFv: B1 scFv with V50A, A54P, N56H

binding (EphA2 with an His6 tag): binds
binding [1]: binds
B5: scFv-18 (scFv)
scFv: B1 scFv with N56T

binding (EphA2 with an His6 tag): binds
binding [1]: binds
B6: scFv-7 (scFv)
scFv: B1 scFv with N56P

binding (EphA2 with an His6 tag): binds
binding [1]: binds
B7: scFv-3 (scFv)
scFv: B1 scFv with S49T, A54D, N56H

binding (EphA2 with an His6 tag): binds
binding [1]: binds
B8: scFv-8 (scFv)
scFv: B1 scFv with S49T, A54S, N56H

binding (EphA2 with an His6 tag): binds
binding [1]: binds
B9: scFv-17 (scFv)
scFv: B1 scFv with S49T, A54P, N56S, T58K

binding (EphA2 with an His6 tag): binds
binding [1]: binds
B10: scFv-14 (scFv)
scFv: B1 scFv with S49T, N56P, T58K

binding (EphA2 with an His6 tag): binds
binding [1]: binds
B11: scFv-16 (scFv)
scFv: B1 scFv with P53N, A54N, N56H

binding (EphA2 with an His6 tag): binds
binding [1]: binds
B12: scFv-5 (scFv)
scFv: B1 scFv with P53R, A54R, N56D, T58K

binding [1]: binds
B13: scFv-12 (scFv)
scFv: B1 scFv with S49A, V50G, P53H, A54P, N56D

binding (EphA2 with an His6 tag): binds
binding [1]: binds
B14: scFv-4 (scFv)
scFv: B1 scFv with S49T, A54H, N56R, T58K

binding (EphA2 with an His6 tag): binds
binding [1]: binds
B15: scFv-19 (scFv)
scFv: B1 scFv with A54P, N56H

binding (EphA2 with an His6 tag): binds
binding [1]: binds
B16: scFv-2 (scFv)
scFv: B1 scFv with N56R, T58K

binding (EphA2 with an His6 tag): binds
binding [1]: binds
B17: scFv-15 (scFv)
scFv: B1 scFv with A54H, N56S, T58K

binding (EphA2 with an His6 tag): binds
binding [1]: binds
B18: scFv-6 (scFv)
scFv: B1 scFv with P53N, A54N, N56H, T58K

binding (EphA2 with an His6 tag): binds
binding [1]: binds
B19: scFv-21 (scFv)
scFv: B1 scFv with S49T, P53R, A54H, T58K

binding (EphA2 with an His6 tag): binds
binding [1]: binds
B20: scFv-13 (scFv)
scFv: B1 scFv with S49T, A54T, N56A

binding (EphA2 with an His6 tag): binds
binding [1]: binds
B21: scFv-9 (scFv)
scFv: B1 scFv with S49T, A54N, N56H

binding (EphA2 with an His6 tag): binds
binding [1]: binds
B22: scFv-20 (scFv)
scFv: B1 scFv with S49T, P53H, A54D, N56T
